Experimental data taken from patent publication US20130184223A1, “METHODS AND COMPOSITIONS RELATED TO MODULATING AUTOPHAGY” (UNIVERSITY OF ROCHESTER, priority 2010, published 2013).
At least one structure is not confirmed: it was looked up by name or label, or the drawing left a doubt.

Test system: YAMC, mp53, Ras and mp53/Ras transformed cells
Assay: Immunoblot of autophagy markers p62 and LC3 after drug treatment
Assay type: cell-based, murine
Conditions: 250 nM Rapamycin for 24 hrs

CO[C@H]1C[C@@H]2CC[C@@H](C)[C@@](O)(O2)C(=O)C(=O)N2CCCC[C@H]2C(=O)O[C@H]([C@H](C)C[C@@H]2CC[C@@H](O)[C@H](OC)C2)CC(=O)[C@H](C)/C=C(\C)[C@@H](O)[C@@H](OC)C(=O)[C@H](C)C[C@H](C)/C=C/C=C/C=C/1C [Rapamycin]
p62 and LC3 protein levels (p62 degradation, LC3 conversion): suppresses p62 and LC3 protein levels in YAMC, mp53 and Ras, but not mp53/Ras transformed cells | p62 and LC3 protein levels (p62 degradation, LC3 conversion) (listed as rapamycin): p62 degradation and LC3 conversion are increased in rapamycin treated YAMC, mp53 and Ras cells but are unchanged in Transformed cells
